Data reported in paper PMC8274477.
Results are given in words; binding and its absence hold for the method and conditions named. Some binding calls cover weakened binding; strength is not graded here.

What was measured:
Assay in all cases: peptide or protein array; HuProt human proteome microarray; 5 ug/5 ml biotin-labelled LUBAC or OTULIN in solution, 1 h at room temperature; Cy5-streptavidin, scanned at 635 nm; BSA as negative control; hits: Z-score >= 3 and I_(Mean_Ratio) >= 1.4; both purified
PYCR2 (human) = biological target: T1, PYCR2 (human) (UniProt Q96C36)
T1 sequence: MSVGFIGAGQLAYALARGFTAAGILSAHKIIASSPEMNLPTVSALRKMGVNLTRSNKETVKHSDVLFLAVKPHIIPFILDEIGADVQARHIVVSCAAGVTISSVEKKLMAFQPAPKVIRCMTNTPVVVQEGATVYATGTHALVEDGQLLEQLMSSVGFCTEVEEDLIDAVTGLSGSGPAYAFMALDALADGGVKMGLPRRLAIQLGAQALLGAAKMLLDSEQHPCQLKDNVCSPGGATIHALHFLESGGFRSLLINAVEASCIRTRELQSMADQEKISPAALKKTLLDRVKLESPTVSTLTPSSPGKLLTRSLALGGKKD

RBMS1 (human) = biological target: T2, RBMS1 (human) (UniProt P29558)
T2 sequence: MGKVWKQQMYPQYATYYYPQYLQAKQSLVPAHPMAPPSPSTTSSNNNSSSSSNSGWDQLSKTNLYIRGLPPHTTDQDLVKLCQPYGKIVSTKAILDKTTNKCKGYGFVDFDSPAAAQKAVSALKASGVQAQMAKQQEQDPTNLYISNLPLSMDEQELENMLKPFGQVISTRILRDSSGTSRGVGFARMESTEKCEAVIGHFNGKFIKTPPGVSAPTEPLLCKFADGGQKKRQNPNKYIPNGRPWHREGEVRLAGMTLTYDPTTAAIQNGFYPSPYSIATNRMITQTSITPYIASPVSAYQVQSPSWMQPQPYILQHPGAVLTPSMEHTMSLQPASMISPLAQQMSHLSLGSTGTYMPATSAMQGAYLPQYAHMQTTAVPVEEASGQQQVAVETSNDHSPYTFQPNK

SDS (human) = biological target: T3, SDS (human) (UniProt P20132)
T3 sequence: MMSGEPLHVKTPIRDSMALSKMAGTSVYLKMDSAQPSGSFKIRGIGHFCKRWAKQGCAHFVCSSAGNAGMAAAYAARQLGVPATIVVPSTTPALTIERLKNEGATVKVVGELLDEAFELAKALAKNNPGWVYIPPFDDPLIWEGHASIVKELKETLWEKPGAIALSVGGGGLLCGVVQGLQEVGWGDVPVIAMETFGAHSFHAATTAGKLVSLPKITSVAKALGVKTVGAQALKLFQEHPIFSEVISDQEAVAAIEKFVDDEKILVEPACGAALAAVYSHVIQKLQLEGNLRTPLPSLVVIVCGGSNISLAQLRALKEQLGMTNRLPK

SRRT (human) = biological target: T4, SRRT (human) (UniProt Q9BXP5)
T4 sequence: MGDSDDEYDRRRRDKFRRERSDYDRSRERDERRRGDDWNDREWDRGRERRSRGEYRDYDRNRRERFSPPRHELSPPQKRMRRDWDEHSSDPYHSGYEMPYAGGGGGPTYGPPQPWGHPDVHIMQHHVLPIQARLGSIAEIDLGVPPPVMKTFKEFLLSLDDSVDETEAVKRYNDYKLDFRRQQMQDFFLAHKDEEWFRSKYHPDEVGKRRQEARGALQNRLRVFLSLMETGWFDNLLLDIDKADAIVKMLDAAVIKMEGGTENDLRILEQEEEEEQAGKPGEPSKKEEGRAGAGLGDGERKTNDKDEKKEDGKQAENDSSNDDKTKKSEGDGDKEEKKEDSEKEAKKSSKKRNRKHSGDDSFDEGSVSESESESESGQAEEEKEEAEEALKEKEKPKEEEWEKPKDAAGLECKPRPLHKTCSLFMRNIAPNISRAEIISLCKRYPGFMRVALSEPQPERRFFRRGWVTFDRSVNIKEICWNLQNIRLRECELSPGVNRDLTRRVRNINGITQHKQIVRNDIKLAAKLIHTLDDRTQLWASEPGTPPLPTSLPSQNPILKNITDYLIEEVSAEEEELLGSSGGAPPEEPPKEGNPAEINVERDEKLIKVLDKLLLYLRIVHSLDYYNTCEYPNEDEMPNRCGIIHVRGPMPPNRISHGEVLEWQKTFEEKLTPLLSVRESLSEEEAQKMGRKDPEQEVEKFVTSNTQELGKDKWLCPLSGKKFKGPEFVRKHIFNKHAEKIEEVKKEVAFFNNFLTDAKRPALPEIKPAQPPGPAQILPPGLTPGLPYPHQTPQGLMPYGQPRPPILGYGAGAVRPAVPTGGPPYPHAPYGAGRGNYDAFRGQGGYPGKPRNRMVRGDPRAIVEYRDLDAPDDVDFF

Measured: binding

linear ubiquitin chain assembly complex (LUBAC), purified as HIS-tagged HOIP with the subunit HOIL-1, biotin-labelled (from UniProt Q96EP0 1-1072; Q9BYM8 1-510)
binds: all assays above
